From a melanoma drug combination screen (doi:10.1371/journal.pone.0140310); values rounded.

Drug key:
nutlin-3: COc1ccc(C2=N[C@@H](c3ccc(Cl)cc3)[C@@H](c3ccc(Cl)cc3)N2C(=O)N2CCNC(=O)C2)c(OC(C)C)c1 at 500 nM
MK-2206: NC1(c2ccc(-c3nc4ccn5c(=O)[nH]nc5c4cc3-c3ccccc3)cc2)CCC1 at 2000 nM
BMS-536924: Cc1cc(N2CCOCC2)cc2[nH]c(-c3c(NC[C@@H](O)c4cccc(Cl)c4)cc[nH]c3=O)nc12 at 1000 nM
LFM-A13: C/C(O)=C(\C#N)C(=O)Nc1cc(Br)ccc1Br at 10000 nM
YM155: COCC[n+]1c2c(n(Cc3cnccn3)c1C)C(=O)c1ccccc1C2=O at 2 nM
GW9662: O=C(Nc1ccccc1)c1cc([N+](=O)[O-])ccc1Cl at 10000 nM
vismodegib: CS(=O)(=O)c1ccc(C(=O)Nc2ccc(Cl)c(-c3ccccn3)c2)c(Cl)c1 at 5000 nM
U73122: COc1ccc2c(c1)CCC1C2CCC2(C)C(NCCCCCCN3C(=O)C=CC3=O)CCC12 (configuration not stated) at 2000 nM
cisplatin: N.N.[Cl][Pt][Cl] at 8000 nM
STA-4783: CN(NC(=O)CC(=O)NN(C)C(=S)c1ccccc1)C(=S)c1ccccc1 at 30 nM

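Human melanoma cell lines in 1,536-well plates were treated with a pair of drugs for 72 h, then fixed, stained and imaged. Each value is the cleaved-PARP-positive fraction of nuclei relative to DMSO-treated wells, in %, so that 100 equals the control and higher values mean more apoptosis. Every drug was used at one fixed concentration, the higher of two screened. No replicate spread is given; individual values may be noisy. Basal and induced levels differ widely between cell lines.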
Only some of the drugs and lines screened are listed, without regard to their results.
An entry leaves out what has no value listed here.
A dash means that no value is listed here.

Drugs	COLO 829	WM451Lu	RPMI-7951	WM115	G-361	A2058	WM3619	WM1716	A375	LB2518-MEL	C32	COLO 792
cisplatin + nutlin-3	180	70.7	230	360	102	67.2	157	74.2	139	88.7	87.3	105
vismodegib + STA-4783	309	67.8	82.4	2260	488	2120	1480	48.7	-	-	7060	500
YM155 + BMS-536924	74.7	373	662	251	184	483	114	118	-	368	95.7	554
vismodegib + GW9662	112	141	92.1	198	79.0	119	188	76.5	35.8	129	63.8	13.5
GW9662 + cisplatin	274	320	59.4	123	175	135	162	76.5	283	147	76.9	132
BMS-536924 + U73122	92.7	35.9	102	61.0	119	164	126	64.8	282	53.9	141	243
GW9662 + nutlin-3	265	235	76.1	76.9	180	206	180	149	46.6	157	116	82.9
MK-2206 + cisplatin	58.5	372	98.8	201	67.0	102	80.4	101	106	363	421	119
cisplatin + BMS-536924	13.9	214	204	111	175	164	118	334	-	272	217	292
YM155 + STA-4783	344	292	112	1600	644	3710	659	1010	-	1070	6330	1480
STA-4783 + LFM-A13	131	66.8	79.0	2000	408	2800	1020	254	76.1	590	278	528
MK-2206 + GW9662	197	195	690	176	65.5	237	180	83.4	32.7	88.5	86.5	125
STA-4783 + MK-2206	553	74.3	39.6	1650	230	2470	2120	304	-	1690	1440	418
YM155 + vismodegib	118	292	109	208	172	630	79.9	54.7	106	237	73.4	179
BMS-536924 + STA-4783	896	226	64.1	1330	783	2090	1450	169	-	1090	1340	1610
U73122 + cisplatin	131	64.9	773	145	83.0	182	253	181	357	229	237	121
BMS-536924 + LFM-A13	49.9	143	91.3	56.4	175	178	116	110	51.9	65.2	111	243
STA-4783 + cisplatin	190	110	65.1	119	42.9	48.1	82.2	86.2	-	64.1	395	59.6
cisplatin + YM155	108	492	96.4	72.3	237	842	140	98.1	379	195	86.8	135
BMS-536924 + vismodegib	121	37.3	84.6	94.3	25.5	165	99.7	58.8	-	101	204	27.4
BMS-536924 + MK-2206	133	44.7	59.6	398	61.2	147	116	221	-	-	759	319
U73122 + STA-4783	37.2	26.7	87.4	57.2	119	131	121	135	36.8	32.2	106	175
GW9662 + STA-4783	369	169	845	574	250	1820	1120	166	181	903	624	2520
LFM-A13 + vismodegib	122	29.3	116	127	83.3	151	96.7	61.7	165	41.8	63.0	14.3
LFM-A13 + YM155	192	212	201	67.0	103	695	96.3	200	53.4	233	180	181
cisplatin + vismodegib	98.5	140	176	32.6	118	101	75.9	72.6	593	59.9	165	103
GW9662 + YM155	111	1040	171	913	94.8	1460	178	75.4	77.3	578	99.2	71.9
U73122 + GW9662	120	111	143	127	47.5	81.8	255	16.8	129	293	163	75.1
U73122 + YM155	137	280	28.0	58.3	147	573	104	173	131	28.1	87.2	74.7
LFM-A13 + GW9662	198	123	130	170	63.4	161	129	31.0	104	262	77.6	175
U73122 + nutlin-3	104	29.1	84.8	170	143	185	179	230	270	76.0	127	72.4
nutlin-3 + YM155	38.8	378	268	123	197	823	159	126	129	663	141	255
LFM-A13 + MK-2206	41.5	160	130	75.5	95.6	123	114	50.7	121	38.8	173	33.2
U73122 + LFM-A13	110	95.0	214	397	99.3	149	146	95.6	111	58.3	119	58.1
YM155 + MK-2206	197	528	82.3	272	171	1290	126	123	109	2420	97.5	489
nutlin-3 + LFM-A13	67.4	93.3	113	58.2	38.5	99.0	139	97.4	171	102	106	105
BMS-536924 + GW9662	117	153	58.5	125	45.6	82.6	131	51.2	34.4	132	87.5	77.9
STA-4783 + nutlin-3	177	125	217	950	545	1370	1220	61.9	-	593	2660	602
LFM-A13 + cisplatin	48.1	296	153	104	171	67.2	104	192	190	115	149	77.5

Some entries from above, unchanged:

- GW9662 + YM155 : COLO 829: 111; WM451Lu: 1040; RPMI-7951: 171; WM115: 913; G-361: 94.8; A2058: 1460; WM3619: 178; WM1716: 75.4; A375: 77.3; LB2518-MEL: 578; C32: 99.2; COLO 792: 71.9
- cisplatin + nutlin-3 : COLO 829: 180; WM451Lu: 70.7; RPMI-7951: 230; WM115: 360; G-361: 102; A2058: 67.2; WM3619: 157; WM1716: 74.2; A375: 139; LB2518-MEL: 88.7; C32: 87.3; COLO 792: 105
- U73122 + cisplatin : COLO 829: 131; WM451Lu: 64.9; RPMI-7951: 773; WM115: 145; G-361: 83.0; A2058: 182; WM3619: 253; WM1716: 181; A375: 357; LB2518-MEL: 229; C32: 237; COLO 792: 121
- BMS-536924 + MK-2206 : COLO 829: 133; WM451Lu: 44.7; RPMI-7951: 59.6; WM115: 398; G-361: 61.2; A2058: 147; WM3619: 116; WM1716: 221; C32: 759; COLO 792: 319
- U73122 + nutlin-3 : COLO 829: 104; WM451Lu: 29.1; RPMI-7951: 84.8; WM115: 170; G-361: 143; A2058: 185; WM3619: 179; WM1716: 230; A375: 270; LB2518-MEL: 76.0; C32: 127; COLO 792: 72.4